# Measurements as given in article PMC11640973, “The Detection of Toxic Amyloid-β Fibril Fragments Through a Surface Plasmon Resonance Immunoassay” (International Journal of Molecular Sciences, 2024).
# Legend:
# [1] = Transmission electron microscopy (TEM) of Aβ42 species; type: physicochemical
# [2] = Thioflavin-T (ThT) fluorescence assay of fibrillar content; type: physicochemical; details: 5 µM Aβ42 with 20 µM ThT
substance,measurement,setting,value
Amyloid-β1–42 [Aβ42],TEM morphology,"[1]; 6 h at 37 °C, 50 µM in PBS","small fibrils, sometimes grouped in larger fibrillar aggregates"
same,TEM morphology,"[1]; 5 days at 37 °C, 50 µM in PBS",larger suprafibrillar macroaggregates
same,TEM morphology,"[1]; 5 days at 37 °C, then one freeze-and-thaw cycle",clear fragmentation of these macroaggregates
same,TEM morphology,[1]; t = 0,no visible Aβ42 aggregates were detected by TEM
same,ThT fluorescence signal,[2]; 6 h at 37 °C,increase in the ThT fluorescence signal
same,ThT signal,[2]; 5 days at 37 °C then freeze-and-thaw cycle,remained unchanged
same,ThT signal,[2]; 5 days at 37 °C,clear plateau in the ThT signal
same,ThT signal,"[2]; t = 0, excitation 448 nm, emission 485 nm",did not show any signal
